Measured values reported in publication PMC8651787, “Tankyrase-1-mediated degradation of Golgin45 regulates glycosyltransferase trafficking and protein glycosylation in Rab2-GTP-dependent manner” (Communications Biology, 2021).
Read-outs that look alike come from different tables or passages of the source. These are yes or no findings as the source states them, for the method shown. For some of these results: In cells and extracts the contact can be indirect. Some binding calls cover weakened binding; strength is not graded here. For some of these results: Tags and fused reporters may be left off the sequences shown. Values belong to the molecule of their own block, whether it stands above or below them.

The chains behind the UniProt entries cited, without tags or fusion partners. Where a name states a change or a piece, a line headed by the entry shows the natural chain unless it says otherwise.
UniProt O60493: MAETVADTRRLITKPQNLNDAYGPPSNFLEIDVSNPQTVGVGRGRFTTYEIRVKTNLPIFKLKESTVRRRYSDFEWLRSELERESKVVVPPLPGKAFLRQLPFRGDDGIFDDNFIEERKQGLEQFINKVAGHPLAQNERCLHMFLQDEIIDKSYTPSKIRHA
UniProt P61019: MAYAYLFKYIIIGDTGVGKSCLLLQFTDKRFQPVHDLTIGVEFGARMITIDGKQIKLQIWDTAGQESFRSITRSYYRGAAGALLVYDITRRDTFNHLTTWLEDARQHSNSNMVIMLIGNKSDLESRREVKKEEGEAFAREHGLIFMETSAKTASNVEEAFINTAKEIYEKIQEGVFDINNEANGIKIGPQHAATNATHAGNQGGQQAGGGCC
UniProt O95271: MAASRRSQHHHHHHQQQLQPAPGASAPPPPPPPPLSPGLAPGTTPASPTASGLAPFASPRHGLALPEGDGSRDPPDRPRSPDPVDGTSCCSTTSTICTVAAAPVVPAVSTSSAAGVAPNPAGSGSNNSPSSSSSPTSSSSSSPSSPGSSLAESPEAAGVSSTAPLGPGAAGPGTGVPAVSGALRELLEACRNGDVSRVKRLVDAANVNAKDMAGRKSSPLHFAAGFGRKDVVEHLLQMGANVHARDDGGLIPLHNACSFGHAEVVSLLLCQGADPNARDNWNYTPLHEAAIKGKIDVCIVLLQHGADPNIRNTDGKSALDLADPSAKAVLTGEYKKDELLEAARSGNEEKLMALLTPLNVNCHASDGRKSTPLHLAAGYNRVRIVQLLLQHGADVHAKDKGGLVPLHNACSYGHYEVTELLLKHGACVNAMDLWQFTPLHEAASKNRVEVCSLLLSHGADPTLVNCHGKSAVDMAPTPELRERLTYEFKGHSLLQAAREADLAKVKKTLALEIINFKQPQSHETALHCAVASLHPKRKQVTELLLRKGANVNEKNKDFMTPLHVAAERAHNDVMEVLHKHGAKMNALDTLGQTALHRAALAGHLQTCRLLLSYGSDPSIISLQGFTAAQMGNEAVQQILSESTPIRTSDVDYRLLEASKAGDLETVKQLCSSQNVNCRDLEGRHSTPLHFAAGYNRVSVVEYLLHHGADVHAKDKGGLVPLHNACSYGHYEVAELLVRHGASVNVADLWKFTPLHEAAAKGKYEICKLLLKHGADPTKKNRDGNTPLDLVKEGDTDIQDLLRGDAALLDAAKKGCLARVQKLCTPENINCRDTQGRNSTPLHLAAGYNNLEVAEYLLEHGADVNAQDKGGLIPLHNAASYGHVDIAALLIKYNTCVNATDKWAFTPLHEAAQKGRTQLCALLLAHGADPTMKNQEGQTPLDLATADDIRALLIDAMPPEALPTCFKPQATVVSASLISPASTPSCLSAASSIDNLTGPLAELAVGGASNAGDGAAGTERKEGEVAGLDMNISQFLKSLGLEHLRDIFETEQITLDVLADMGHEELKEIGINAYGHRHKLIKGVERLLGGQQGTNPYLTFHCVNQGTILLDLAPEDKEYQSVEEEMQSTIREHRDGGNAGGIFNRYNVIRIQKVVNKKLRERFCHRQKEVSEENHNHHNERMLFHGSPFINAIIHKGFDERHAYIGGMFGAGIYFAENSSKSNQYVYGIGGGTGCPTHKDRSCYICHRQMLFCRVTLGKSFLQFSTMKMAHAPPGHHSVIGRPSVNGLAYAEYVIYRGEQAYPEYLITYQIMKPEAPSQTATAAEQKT
UniProt Q9H3P7: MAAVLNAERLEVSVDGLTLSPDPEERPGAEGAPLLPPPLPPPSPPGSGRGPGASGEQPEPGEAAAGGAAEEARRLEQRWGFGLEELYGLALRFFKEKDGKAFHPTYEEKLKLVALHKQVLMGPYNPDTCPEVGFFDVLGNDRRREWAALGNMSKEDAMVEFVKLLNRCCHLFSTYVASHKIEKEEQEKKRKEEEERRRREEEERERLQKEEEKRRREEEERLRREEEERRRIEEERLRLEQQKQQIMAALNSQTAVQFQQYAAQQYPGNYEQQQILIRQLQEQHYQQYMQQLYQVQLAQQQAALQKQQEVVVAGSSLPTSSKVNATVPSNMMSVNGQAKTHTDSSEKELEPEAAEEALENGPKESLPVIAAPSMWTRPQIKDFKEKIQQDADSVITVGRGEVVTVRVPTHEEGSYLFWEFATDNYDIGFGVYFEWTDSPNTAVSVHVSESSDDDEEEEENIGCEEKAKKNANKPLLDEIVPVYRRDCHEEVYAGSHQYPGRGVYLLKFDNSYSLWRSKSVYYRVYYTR

Tests used:
[1] = biological target: T1, mCherry-Golgin45-V214/273A (human) (UniProt Q9H2G9); experiment: co-IP; HeLa cells transfected with mCherry fusions; lysis in 25 mM HEPES pH 7.4, 150 mM NaCl, 1% NP-40; anti-RFP agarose beads 4 h at 4 °C; western blot for endogenous proteins
T1 sequence: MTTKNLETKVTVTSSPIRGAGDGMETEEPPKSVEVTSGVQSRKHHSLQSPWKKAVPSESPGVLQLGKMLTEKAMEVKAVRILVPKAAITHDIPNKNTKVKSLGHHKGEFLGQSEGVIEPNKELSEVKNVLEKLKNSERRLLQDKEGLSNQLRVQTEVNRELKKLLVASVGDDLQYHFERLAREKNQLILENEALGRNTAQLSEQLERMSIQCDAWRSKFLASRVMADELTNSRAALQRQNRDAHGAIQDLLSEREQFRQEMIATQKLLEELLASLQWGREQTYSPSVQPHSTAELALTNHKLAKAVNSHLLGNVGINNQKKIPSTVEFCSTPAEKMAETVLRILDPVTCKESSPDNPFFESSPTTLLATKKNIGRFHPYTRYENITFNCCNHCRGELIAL

[2] = biological target: mCherry tagged Sorting Nexin 3 (UniProt O60493); experiment: as above
[3] = biological target: T2, mCherry-Golgin45 (human) (UniProt Q9H2G9); experiment: as above
T2 sequence: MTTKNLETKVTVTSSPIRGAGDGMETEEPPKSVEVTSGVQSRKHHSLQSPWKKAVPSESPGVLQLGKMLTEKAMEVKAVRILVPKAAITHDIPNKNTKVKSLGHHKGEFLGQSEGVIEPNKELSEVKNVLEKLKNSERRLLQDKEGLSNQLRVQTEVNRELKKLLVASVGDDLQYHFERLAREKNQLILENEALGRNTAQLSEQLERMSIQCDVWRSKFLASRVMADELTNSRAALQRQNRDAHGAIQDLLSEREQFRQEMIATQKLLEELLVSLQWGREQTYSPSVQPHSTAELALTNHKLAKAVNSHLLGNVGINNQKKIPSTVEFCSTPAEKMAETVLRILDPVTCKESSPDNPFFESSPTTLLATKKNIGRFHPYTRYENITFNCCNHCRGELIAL

[4] = biological target: T3, GST-Golgin45 N70 ΔTBD (human) (UniProt Q9H2G9); experiment: pull-down; 150 μg GST fusion protein on Glutathione-Sepharose 4B beads; 0.1 μM prey protein; 25 mM Hepes pH 7.4, 150 mM NaOAc, 0.2% Triton, 1 mM DTT; 4 °C, 2 h; western blot; both purified
T3 sequence: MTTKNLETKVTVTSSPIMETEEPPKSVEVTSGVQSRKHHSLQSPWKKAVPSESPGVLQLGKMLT

[5] = biological target: T4, mCherry-Golgin45-ΔTBD (human) (UniProt Q9H2G9); experiment: co-IP; HeLa cells transfected with mCherry fusions; lysis in 25 mM HEPES pH 7.4, 150 mM NaCl, 1% NP-40; anti-RFP agarose beads 4 h at 4 °C; western blot for endogenous proteins
T4 sequence: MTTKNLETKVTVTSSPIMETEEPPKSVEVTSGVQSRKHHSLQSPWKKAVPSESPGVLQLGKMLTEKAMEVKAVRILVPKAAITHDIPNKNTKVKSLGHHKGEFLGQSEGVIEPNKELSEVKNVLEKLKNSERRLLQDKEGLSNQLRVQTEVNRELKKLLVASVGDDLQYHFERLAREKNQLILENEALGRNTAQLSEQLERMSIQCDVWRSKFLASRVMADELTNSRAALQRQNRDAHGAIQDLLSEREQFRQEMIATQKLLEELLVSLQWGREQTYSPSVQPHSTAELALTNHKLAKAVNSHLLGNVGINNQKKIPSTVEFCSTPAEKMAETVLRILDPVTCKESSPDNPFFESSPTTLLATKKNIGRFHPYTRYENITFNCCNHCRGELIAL

[6] = biological target: mCherry tagged Sorting Nexin 3 (UniProt O60493); experiment: as above; remark: listed apart in the source
[7] = biological target: T2, mCherry-Golgin45 (human); experiment: as above; remark: listed apart in the source
[8] = biological target: GST-Rab2-GTPγS (UniProt P61019); experiment: pull-down; GST-Rab on Glutathione-Sepharose 4B, EDTA treated and loaded with GTPγS (100 μM); 0.1 μM prey protein; 25 mM Hepes pH 7.4, 150 mM NaOAc, 25 mM Mg(OAc)2, 0.2% Triton, 1 mM DTT; 4 °C, 2 h; western blot; both purified

Molecule: TNKS1-Arc1 (183–335aa) (from UniProt O95271 183-335) (domain or fragment)
- binding [4]: no binding (tested: 0.1 μM)

Molecule: TNKS1-Arc2 (336–489aa) (from UniProt O95271 336-489) (domain or fragment)
- binding [4]: no binding (tested: 0.1 μM)

Molecule: TNKS1-Arc4 (654–806aa) (from UniProt O95271 654-806) (domain or fragment)
- binding [4]: no binding (tested: 0.1 μM)

Molecule: TNKS1-Arc5 (807–961aa) (from UniProt O95271 807-961) (domain or fragment)
- binding [4]: no binding (tested: 0.1 μM)

B3: Golgin97, endogenous (protein, UniProt Q92805 1-767)
chain: MFAKLKKKIAEETAVAQRPGGATRIPRSVSKESVASMGADSGDDFASDGSSSREDLSSQLLRRNEQIRKLEARLSDYAEQVRNLQKIKEKLEIALEKHQDSSMRKFQEQNETFQANRAKMAEGLALALARKDQEWSEKMDQLEKEKNILTAQLQEMKNQSMNLFQRRDEMDELEGFQQQELSKIKHMLLKKEESLGKMEQELEARTRELSRTQEELMNSNQMSSDLSQKLEELQRHYSTLEEQRDHVIASKTGAESKITALEQKEQELQALIQQLSIDLQKVTAETQEKEDVITHLQEKVASLEKRLEQNLSGEEHLQELLKEKTLAEQNLEDTRQQLLAARSSQAKAINTLETRVRELEQTLQASEEQLQQSKGIVAAQETQIQELAAANQESSHVQQQALALEQQFLERTQALEAQIVALERTRAADQTTAEQGMRQLEQENAALKECRNEYERSLQNHQFELKKLKEEWSQREIVSVAMAQALEEVRKQREEFQQQAANLTAIIDEKEQNLREKTEVLLQKEQEILQLERGHNSALLQIHQLQAELEALRTLKAEEAAVVAEQEDLLRLRGPLQAEALSVNESHVTSRAMQDPVFQLPTAGRTPNGEVGAMDLTQLQKEKQDLEQQLLEKNKTIKQMQQRMLELRKTLQKELKIRPDNELFEVREKPGPEMANMAPSVTNNTDLTDAREINFEYLKHVVLKFMSCRESEAFHLIKAVSVLLNFSQEEENMLKETLEYKMSWFGSKPAPKGSIRPSISNPRIPWS
- binding [6]: no binding
- binding [7]: no binding

Further lines, results first:

- binding [1]: binds
- binding [2]: no binding
- binding [3]: binds
Molecule: ACBD3, endogenous (from UniProt Q9H3P7 1-528)

- binding [1]: binds
- binding [2]: no binding
- binding [3]: binds
- binding [5]: no binding
Molecule: Tankyrase-1 (TNKS1), endogenous (from UniProt O95271 1-1327)

- binding [6]: no binding
- binding [7]: no binding
B1: GM130, endogenous (protein, UniProt Q08379 1-1002)
chain: MWPQPRLPPRPAMSEETRQSKLAAAKKKLREYQQRNSPGVPTGAKKKKKIKNGSNPETTTSGGCHSPEDTPKDNAATLQPSDDTVLPGGVPSPGASLTSMAASQNHDADNVPNLMDETKTFSSTESLRQLSQQLNGLVCESATCVNGEGPASSANLKDLESRYQQLAVALDSSYVTNKQLNITIEKLKQQNQEITDQLEEEKKECHQKQGALREQLQVHIQTIGILVSEKAELQTALAHTQHAARQKEGESEDLASRLQYSRRRVGELERALSAVSTQQKKADRYNKELTKERDALRLELYKNTQSNEDLKQEKSELEEKLRVLVTEKAGMQLNLEELQKKLEMTELLLQQFSSRCEAPDANQQLQQAMEERAQLEAHLGQVMESVRQLQMERDKYAENLKGESAMWRQRMQQMSEQVHTLREEKECSMSRVQELETSLAELRNQMAEPPPPEPPAGPSEVEQQLQAEAEHLRKELEGLAGQLQAQVQDNEGLSRLNREQEERLLELERAAELWGEQAEARRQILETMQNDRTTISRALSQNRELKEQLAELQSGFVKLTNENMEITSALQSEQHVKRELGKKLGELQEKLSELKETVELKSQEAQSLQQQRDQYLGHLQQYVAAYQQLTSEKEVLHNQLLLQTQLVDQLQQQEAQGKAVAEMARQELQETQERLEAATQQNQQLRAQLSLMAHPGEGDGLDREEEEDEEEEEEEAVAVPQPMPSIPEDLESREAMVAFFNSAVASAEEEQARLRGQLKEQRVRCRRLAHLLASAQKEPEAAAPAPGTGGDSVCGETHRALQGAMEKLQSRFMELMQEKADLKERVEELEHRCIQLSGETDTIGEYIALYQSQRAVLKERHREKEEYISRLAQDKEEMKVKLLELQELVLRLVGDRNEWHGRFLAAAQNPADEPTSGAPAPQELGAANQQGDLCEVSLAGSVEPAQGEAREGSPRDNPTAQQIMQLLREMQNPRERPGLGSNPCIPFFYRADENDEVKITVI

- binding [8]: binds
B2: Golgin-45(cc#1-3; 120-276aa), C-terminal 6xHis (domain or fragment, UniProt Q9H2G9 120-276)
chain: NKELSEVKNVLEKLKNSERRLLQDKEGLSNQLRVQTEVNRELKKLLVASVGDDLQYHFERLAREKNQLILENEALGRNTAQLSEQLERMSIQCDVWRSKFLASRVMADELTNSRAALQRQNRDAHGAIQDLLSEREQFRQEMIATQKLLEELLVSLQ
